Data published in US20240165200A1, “CATH2 AND DERIVATIVES FOR INHIBITING STREPTOCOCCUS SUIS” (Universiteit Utrecht Holding B.V., priority 2021, published 2024).

Assay: Isothermal titration calorimetry (ITC) of peptide binding to LTA-SA
Set-up: species or system S. aureus
Conditions: 200 μM peptide titrated into LTA-SA, 37° C.
Method: Thermodynamic binding capacity of 200 μM D-CATH2 (A), DC(1-21) (B), and DC(4-21) (C) to 200 μM LTA-SA was measured using isothermal titration calorimetry (ITC). Every 300 seconds, 1.99 μl peptide solution was titrated into 164 μl LTA solution. The corrected heat rate (μJ sec^−1) is plotted (top panel) and normalized integrated heat was plotted against the molar ratio between LTA and the peptide (lower panel). Experiments (N=3) were averaged before plotting and fitting an independent model. The corrected heat rate of D-CATH2, DC(1-21), and DC(4-21) is depicted for comparison (D).
The interaction between the D-CATH2 peptides and LTA-SA was tested using isothermal titration calorimetry (ITC). All ITC experiments were performed on a Low Volume NanoITC (TA instruments-Waters LLC, New Castle, USA). 800 μM of LTA-SA or peptide solution was prepared in MilliQ after which a 4-fold dilution in dPBS (Gibco) was made. The chamber was filled with 164 μl LTA-SA and the peptide was loaded in the syringe. Every 300 seconds, 1.99 μL peptide was titrated into the chamber at 37° C. Data was analyzed using the Nano Analyze software (TA instruments-Waters LLC). The data of three experiments was averaged and an independent model was used to determine the peptide-LTA interaction.

CC[C@@H](C)[C@@H](NC(=O)[C@@H](CCCCN)NC(=O)[C@@H](CCCNC(=N)N)NC(=O)[C@@H](CC(C)C)NC(=O)[C@@H](Cc1ccccc1)NC(=O)[C@H](N)CCCNC(=N)N)C(=O)N[C@H](CCCNC(=N)N)C(=O)N[C@H](CCCNC(=N)N)C(=O)N[C@H](Cc1ccccc1)C(=O)N[C@H](CCCNC(=N)N)C(=O)N1CCC[C@@H]1C(=O)N[C@H](CCCCN)C(=O)N[C@@H](C(=O)N[C@@H](C(=O)N[C@@H](C(=O)N[C@@H](C(=O)N[C@@H](C(=O)N[C@H](CCC(N)=O)C(N)=O)[C@H](C)CC)[C@H](C)O)[C@H](C)CC)[C@H](C)O)C(C)C [DC(4-21), RFLRKIRRFRPKVTITIQ-NH2] (H-[dR][dF][dL][dR][dK][dI][dR][dR][dF][dR][dP][dK][dV][dT][dI][dT][dI][dQ]-NH2; N-terminus assumed)
ΔH (enthalpy changes): -3.999 kcal/mol | ΔS (entropy changes): 54.68 J/mol · K

Where a SMILES comes first, the peptide text is derived from it. [ ]: non-standard residue; d: D form.
